[ ]: non-standard residue; d: D form. The star is where a group is joined. Arg(NO2) = N=C(NCCC[C@H](N)C(=O)O)N[N+](=O)[O-]; Tos = Cc1ccc(S(=O)(=O)*)cc1; Cbz = O=C(OCc1ccccc1)*; Boc = CC(C)(C)OC(=O)*; azaGly = NNC(=O)O; tBu = CC(C)(C)*
assay: general procedure: hybrid (solid and solution phase) peptide synthesis; p-methylbenzhydrylamine (MBHA) resin, PEPTIDE INSTITUTE, INC., amino group 0.72 mmol/g; DCC/HOBt (solid phase); mixed anhydride, azide, WSC/HOSu (solution); chymotrypsi; details: coupling step

Point of comparison: “pGlu-His-Trp-Ser-Tyr-(2-naphthyl)-D-Ala-Leu-Arg-Pro-Gly-NH2”, step yield 76.2%. Against it:
- pGlu-His-Trp-OMe + H-D-Ser-Tyr-D-Ser(tBu)-Leu-Arg-Pro-NHEt — lower, 0.0%
- pGlu-His-Trp-Ser-Tyr-D-Trp-Leu-Arg-Pro-Gly-NH2 — lower, 75.45%
- Cbz-SY[dS](tBu)LRP[azaGly]-NH2 — higher, 78.6%
- pGlu-His-Trp-Ser-Tyr-D-Ser(But)-Leu-Arg-Pro-Azgly-NH2 — lower, 75.9%
- Cbz-SY[dS](tBu)LRP-NHEt — higher, 87.5%
- Cbz-[dS](tBu)LRP[azaGly]-NH2 — higher, 78.3%
- pGlu-D-His-Trp-OMe + H-Ser-Tyr-D-Ser(tBu)-Leu-Arg-Pro-NHEt — lower, 7.8%
- pGlu-His-D-Trp-OMe + H-Ser-Tyr-D-Ser(tBu)-Leu-Arg-Pro-NHEt — lower, 0.0%
- pGlu-His-Trp-Ser-Tyr-D-Leu-Leu-Arg-Pro-NHEt — higher, 76.4%
- pGlu-His-Trp-Ser-Tyr-Gly-Leu-Arg-Pro-Gly-NH2 — higher, 76.3%
- Boc-[dL]LR(Tos)P-NHEt — higher, 92.1%
- Cbz-SY[dL]LR(Tos)P-NHEt — higher, 83.2%
- Cbz-L[Arg(NO2)]P[azaGly]-NH2 — higher, 98.6%

same assay, conditions: coupling step; run 1

Point of comparison: “pGlu-His-Trp-Ser-Tyr-D-Ser(But)-Leu-Arg-Pro-NHEt”, step yield 74.9%. Against it:
- Cbz-[dS](tBu)LRP-NHEt — higher, 90.5%

same assay, conditions: coupling step; run 2

Point of comparison: “pGlu-His-Trp-Ser-Tyr-D-Ser(But)-Leu-Arg-Pro-NHEt”, step yield 82.4%. Against it:
- Cbz-[dS](tBu)LRP-NHEt — higher, 91.2%

same assay, conditions: coupling step; run 3

With “pGlu-His-Trp-Ser-Tyr-D-Ser(But)-Leu-Arg-Pro-NHEt” the step yield was 78.8%.

same assay, conditions: late stage modification step

Point of comparison: H-SY[dS](tBu)LRP-NHEt, step yield 90.3%. Against it:
- H-SY[dS](tBu)LRP[azaGly]-NH2 — higher, 94.6%
- H-SY[dL]LRP-NHEt — higher, 92.4%
